Results deposited as PubChem BioAssay AID1259405 (NCATS, 2018).

- Purpose: 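Silenced genes that increase secreted GFP made by CHO cells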 (primary screen)
- Cell system: Chinese hamster CHO-K1 ovary cells with stable secreted eGFP expression
- Reagent: single siRNA against mouse genes, 0.8 pmol siRNA per well (2 µl of 400 nM stock)
- Timing: 3 days
- Measured: 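Per-well intracellular GFP measured by laser scanning cytometry, plus viability from ATP luminescence, each relative to plate median of non-targeting control wells, in %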
- Direction: GFP, % of control: higher = more GFP per well, higher productivity; viability (ATP), % of control: higher = more viable cells (more ATP)
- Call rule: 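a knock-down is called active if GFP reaches 120% or more of non-targeting control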
This is one part, drawn at random, of about 50,000 reagents. Of all reagents, about 4,000 (8%) are marked active. 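Mouse siRNA library applied to hamster cells; one well for each siRNA.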 Entries without a mark were called inactive. The numbers tell different reagents against one gene apart.

target gene | siRNA no. | GFP, % of control | viability (ATP), % of control
Ywhah | 1 | 130 (active) | 116
Ywhah | 2 | 56.1 | 61.5
Ywhah | 3 | 49.7 | 64.1
Memo1 (mediator of cell motility 1) | 1 | 83 | 96.5
Memo1 (mediator of cell motility 1) | 2 | 70.6 | 91.2
Memo1 (mediator of cell motility 1) | 3 | 85.4 | 58.6
Kif26b (kinesin family member 26B) | 1 | 71 | 68.2
Kif26b (kinesin family member 26B) | 2 | 88.4 | 73.2
Kif26b (kinesin family member 26B) | 3 | 104 | 82.7
Kif26b (kinesin family member 26B) | 4 | 64.5 | 66.9
Kif26b (kinesin family member 26B) | 5 | 60.9 | 87.2
Kif26b (kinesin family member 26B) | 6 | 136 (active) | 50.7
Rnase1 (ribonuclease, RNase A family, 1 (pancreatic)) | 1 | 67.4 | 124
Rnase1 (ribonuclease, RNase A family, 1 (pancreatic)) | 2 | 19.6 | 34.4
Rnase1 (ribonuclease, RNase A family, 1 (pancreatic)) | 3 | 97.3 | 58.3
Igf2r (insulin-like growth factor 2 receptor) | 1 | 105 | 133
Igf2r (insulin-like growth factor 2 receptor) | 2 | 68.3 | 53.5
Igf2r (insulin-like growth factor 2 receptor) | 3 | 88.1 | 31.8
Coq7 (demethyl-Q 7) | 1 | 45.3 | 41.4
Coq7 (demethyl-Q 7) | 2 | 102 | 97.1
Coq7 (demethyl-Q 7) | 3 | 52 | 68
Cacng4 (calcium channel, voltage-dependent, gamma subunit 4) | 1 | 97.2 | 108
Cacng4 (calcium channel, voltage-dependent, gamma subunit 4) | 2 | 129 (active) | 109
Cacng4 (calcium channel, voltage-dependent, gamma subunit 4) | 3 | 70.2 | 67
Igf2bp3 (insulin-like growth factor 2 mRNA binding protein 3) | 1 | 110 | 80.3
Igf2bp3 (insulin-like growth factor 2 mRNA binding protein 3) | 2 | 123 (active) | 94.3
Igf2bp3 (insulin-like growth factor 2 mRNA binding protein 3) | 3 | 136 (active) | 126
Lce1l (late cornified envelope 1L) | 1 | 94.7 | 89.2
Lce1l (late cornified envelope 1L) | 2 | 32.2 | 38.1
Lce1l (late cornified envelope 1L) | 3 | 54.8 | 38.3

Quoted from above (10 entries):
target gene | siRNA no. | GFP, % of control | viability (ATP), % of control
Memo1 (mediator of cell motility 1) | 1 | 83 | 96.5
Memo1 (mediator of cell motility 1) | 2 | 70.6 | 91.2
Memo1 (mediator of cell motility 1) | 3 | 85.4 | 58.6
Kif26b (kinesin family member 26B) | 1 | 71 | 68.2
Kif26b (kinesin family member 26B) | 2 | 88.4 | 73.2
Kif26b (kinesin family member 26B) | 3 | 104 | 82.7
Kif26b (kinesin family member 26B) | 4 | 64.5 | 66.9
Kif26b (kinesin family member 26B) | 5 | 60.9 | 87.2
Kif26b (kinesin family member 26B) | 6 | 136 (active) | 50.7
Rnase1 (ribonuclease, RNase A family, 1 (pancreatic)) | 1 | 67.4 | 124

Additional results follow.
target gene | siRNA no. | GFP, % of control | viability (ATP), % of control
Wdr64 (WD repeat domain 64) | 1 | 78.7 | 72.9
Wdr64 (WD repeat domain 64) | 2 | 66.2 | 54.4
Wdr64 (WD repeat domain 64) | 3 | 81.7 | 114
Cdpf1 (cysteine rich, DPF motif domain containing 1) | 1 | 79.2 | 54.8
Cdpf1 (cysteine rich, DPF motif domain containing 1) | 2 | 77.9 | 103
Cdpf1 (cysteine rich, DPF motif domain containing 1) | 3 | 70.9 | 82.1
Ssb (small RNA binding exonuclease protection factor La) | 1 | 93.6 | 124
Ssb (small RNA binding exonuclease protection factor La) | 2 | 79.6 | 89.8
T (brachyury, T-box transcription factor T) | 1 | 91 | 107
T (brachyury, T-box transcription factor T) | 2 | 78.7 | 81.3
T (brachyury, T-box transcription factor T) | 3 | 86.9 | 78.2
Dpp10 (dipeptidylpeptidase 10) | 1 | 131 (active) | 70.2
Dpp10 (dipeptidylpeptidase 10) | 2 | 91.2 | 74.8
Dpp10 (dipeptidylpeptidase 10) | 3 | 70.2 | 72.2
Ankib1 (ankyrin repeat and IBR domain containing 1) | 1 | 34 | 47.7
Ankib1 (ankyrin repeat and IBR domain containing 1) | 2 | 95.5 | 83.1
Ankib1 (ankyrin repeat and IBR domain containing 1) | 3 | 67.6 | 133
Rgl2 (ral guanine nucleotide dissociation stimulator-like 2) | 1 | 127 (active) | 97.5
Rgl2 (ral guanine nucleotide dissociation stimulator-like 2) | 2 | 115 | 103
Rgl2 (ral guanine nucleotide dissociation stimulator-like 2) | 3 | 64.1 | 63.9
Tgfbr3 (transforming growth factor, beta receptor III) | 1 | 85.1 | 74.3
Tgfbr3 (transforming growth factor, beta receptor III) | 2 | 58.6 | 44.9
Tgfbr3 (transforming growth factor, beta receptor III) | 3 | 63 | 59.4
Rhbdd2 (rhomboid domain containing 2) | 1 | 68 | 68.5
Rhbdd2 (rhomboid domain containing 2) | 2 | 45 | 38.4
Rhbdd2 (rhomboid domain containing 2) | 3 | 87.9 | 53.2
Rhbdd2 (rhomboid domain containing 2) | 4 | 67.5 | 78.7
Rhbdd2 (rhomboid domain containing 2) | 5 | 45 | 55.3
Rhbdd2 (rhomboid domain containing 2) | 6 | 85.2 | 103
